Tests used:
Type in all cases: cell-based, human
[1] = system: K-562 cells; test: MTT assay, K562; conditions: SI = IC50 normal cell line (HaCaT)/IC50 cancer cell line
Procedure: (§1) As a first step in assessing their cytotoxic properties, all thioureas of the series were assayed against four human carcinoma cell lines, such as SW480 (primary colon cancer), SW620 (metastatic colon cancer), PC3 (metastatic prostate cancer), and K-562 (chronic myelogenous leukemia), as well as against the normal cell line HaCaT (immortalized human keratinocytes). Table 1 lists the compound concentrations that produced 50% of growth inhibition (IC50, μM), generated by the MTT method, in comparison with two commonly used chemotherapeutic agents, doxorubicin and cisplatin.
(§2) The human primary (SW480), metastatic (SW620) colon cancer, metastatic prostate cancer (PC3), chronic myelogenous leukemia (K-562), and human immortal keratinocyte (HaCaT) cell lines were purchased from the American Type Culture Collection (ATCC, Rockville, MD, USA). The cells were cultured in medium according to protocols (MEM for SW480 and SW620, RPMI 1640 for PC3 and K-562, and DMEM for HaCaT cells), supplemented with 10% FBS, penicillin (100 U/mL) and streptomycin (100 μg/mL), and cultured in a 37 °C/5% CO2 humidified incubator. The cells were cultured until appropriate confluence was achieved (80–90%). Next, they were harvested by treatment with 0.25% trypsin (Gibco Life Technologies, Waltham, MA, USA) excluding the non-adherent K-562 cell line and used for studies.
(§3) Cells without the studied compounds in medium were used as a control.
(§4) The cell viability was assessed by determination of MTT salt [3-(4,5-dimethylthiazol-2-yl)-2,5-diphenyltetrazoliumbromide] conversion by mitochondrial dehydrogenase. The MTT assay was performed as previously described. Alternatively, non-adherent leukemic cells were centrifuged in a microplate centrifuge (400× g, 5 min) during the collection stages. Experiments were repeated three times. Cell viability was presented as a percent of MTT reduction in the treated cells versus the control cells. The number of viable cells cultured without the studied compounds was assumed as 100%. A decreased relative MTT level indicated decreased cell viability. Thiourea compounds with the highest cytotoxic potential assessed by MTT determination (with the lowest IC50) were chosen for subsequent assessments of cytotoxicity mechanisms.

[2] = system: PC3 cells; test: MTT assay, PC3; conditions: SI = IC50 normal cell line (HaCaT)/IC50 cancer cell line
Procedure: as §1, §2, §3, §4

[3] = system: SW620 cells; test: MTT assay, SW620; conditions: for SI SW620: SI = IC50 normal cell line (HaCaT)/IC50 cancer cell line
Procedure: as §1, §2, §3, §4

[4] = system: SW480 cells; test: MTT assay, SW480; conditions: SI = IC50 normal cell line (HaCaT)/IC50 cancer cell line
Procedure: as §1, §2, §3, §4

Structure (SMILES)	SI K562 [1]	SI PC3 [2]	SI SW620 [3]	SI SW480 [4]	SI relative to cisplatin (times higher) ([3]; SW620)	potency relative to cisplatin (times stronger) ([3]; SW620, IC50 compared with cisplatin)
Fc1ccc(NC(=S)Nc2cccc(C(F)(F)F)c2)cc1Cl [Compound 1, 1-(3-chloro-4-fluorophenyl)-3-[3-(trifluoromethyl)phenyl]thiourea]	6.4	0.8	4.6	3.4	–	–
FC(F)(F)c1cccc(NC(=S)Nc2ccc(Cl)cc2Cl)c1 [Compound 3, 1-(2,4-dichlorophenyl)-3-[3-(trifluoromethyl)phenyl]thiourea]	1.0	–	9.0	1.7	–	–
COc1cccc2c1C(=O)c1c(O)c3c(c(O)c1C2=O)C[C@@](O)(C(=O)CO)C[C@@H]3O[C@H]1C[C@H](N)[C@H](O)[C@H](C)O1 [Doxorubicin, reference compound]	1.5	1.0	1.0	0.4	–	–
FC(F)(F)c1cccc(NC(=S)Nc2ccccc2C(F)(F)F)c1 [Compound 7, 1-[2-(trifluoromethyl)phenyl]-3-[3-(trifluoromethyl)phenyl]thiourea]	0.9	3.8	2.2	0.7	–	–
FC(F)(F)c1ccc(NC(=S)Nc2cccc(C(F)(F)F)c2)cc1 [Compound 8, 1-[3-(trifluoromethyl)phenyl]-3-[4-(trifluoromethyl)phenyl]thiourea]	0.8	–	5.4	4.6	–	–
Cc1c(Cl)cccc1NC(=S)Nc1cccc(C(F)(F)F)c1 [Compound 5, 1-(3-chloro-2-methylphenyl)-3-[3-(trifluoromethyl)phenyl]thiourea]	1.1	1.1	2.4	7.6	–	–
FC(F)(F)c1cccc(NC(=S)Nc2ccc(Cl)c(Cl)c2)c1 [Compound 2, 1-(3,4-dichlorophenyl)-3-[3-(trifluoromethyl)phenyl]thiourea]	3.9	0.8	16.5	2.7	18	up to 4.5
N#Cc1ccc(NC(=S)Nc2cccc(C(F)(F)F)c2)cc1 [Compound 10, 1-(4-cyanophenyl)-3-[3-(trifluoromethyl)-phenyl]thiourea]	3.9	0.8	2.7	2.4	–	–
FC(F)(F)c1cccc(NC(=S)NCCc2ccccc2)c1 [Compound 12, 1-(2-phenylethyl)-3-[3-(trifluoromethyl)-phenyl]thiourea]	2.3	2.1	1.5	2.2	–	–
FC(F)(F)c1cccc(NC(=S)Nc2ccc(Cl)cc2)c1 [Compound 9, 1-(4-chlorophenyl)-3-[3-(trifluoromethyl)phenyl]thiourea]	7.4	3.2	10.7	1.9	–	–

— PMC8623398, “Investigation of the Mechanisms of Cytotoxic Activity of 1,3-Disubstituted Thiourea Derivatives” (Pharmaceuticals, 2021)
